PubChem BioAssay AID1224830, NIAID – 2016
Screen: 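Host factors that control LPS-induced TNF expression in human macrophages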 (primary screen). System: human THP-1 monocytic leukaemia cells, TNF dual-luciferase reporter clone, PMA-differentiated to macrophage-like cells. Reagent: siRNA pool against human genes, 50 nM. Timing: LPS for 4 h, given about 3 days after siRNA transfection. Treatment: bacterial LPS (TLR4 ligand), 10 ng/ml. Measurement: 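Ratio of firefly to renilla light, scaled to the plate median and expressed as a robust z-score per replicate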. Direction: TNF reporter robust z-score: higher = stronger TNF reporter response to LPS. Hit rule: 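Each well counts as active if its z-score is over 2.8 or under -1.5; controls are left without a call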.
This is a random part of about 18,000 deposited reagents. In the full data, about 2,900 (16%) got an active call. 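Calls are made per well; low scores hint the gene aids the LPS response, high scores that it dampens it.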 A number with no mark means an inactive call. Repeated entries: four replicate wells of each siRNA pool. No sequences are given here.

TNF reporter robust z-score | target
0.7 | CDO1 (cysteine dioxygenase type 1)
1.16 | CDO1 (cysteine dioxygenase type 1)
1.59 | CDO1 (cysteine dioxygenase type 1)
1 | CDO1 (cysteine dioxygenase type 1)
0.18 | SYN1 (synapsin I)
0.79 | SYN1 (synapsin I)
-0.77 | SYN1 (synapsin I)
1.59 | SYN1 (synapsin I)
-0.85 | TMEM174 (transmembrane protein 174)
-0.88 | TMEM174 (transmembrane protein 174)
-0.72 | TMEM174 (transmembrane protein 174)
0.01 | TMEM174 (transmembrane protein 174)
0.2 | CIZ1 (CDKN1A interacting zinc finger protein 1)
1.17 | CIZ1 (CDKN1A interacting zinc finger protein 1)
1.01 | CIZ1 (CDKN1A interacting zinc finger protein 1)
1.54 | CIZ1 (CDKN1A interacting zinc finger protein 1)
-0.2 | SNRPA (small nuclear ribonucleoprotein polypeptide A)
-0.93 | SNRPA (small nuclear ribonucleoprotein polypeptide A)
-0.61 | SNRPA (small nuclear ribonucleoprotein polypeptide A)
-0.03 | SNRPA (small nuclear ribonucleoprotein polypeptide A)
-0.44 | VPS52 (VPS52 subunit of GARP complex)
-0.53 | VPS52 (VPS52 subunit of GARP complex)
-0.77 | VPS52 (VPS52 subunit of GARP complex)
-0.99 | VPS52 (VPS52 subunit of GARP complex)
-0.26 | RIPPLY3 (ripply transcriptional repressor 3)
0.46 | RIPPLY3 (ripply transcriptional repressor 3)
-0.19 | RIPPLY3 (ripply transcriptional repressor 3)
0.9 | RIPPLY3 (ripply transcriptional repressor 3)
-0.18 | ZFAND1 (zinc finger AN1-type containing 1)
0.48 | ZFAND1 (zinc finger AN1-type containing 1)
1.54 | ZFAND1 (zinc finger AN1-type containing 1)
0.43 | ZFAND1 (zinc finger AN1-type containing 1)
-1.22 | PPP2CB (protein phosphatase 2 catalytic subunit beta)
-1.41 | PPP2CB (protein phosphatase 2 catalytic subunit beta)
-1.42 | PPP2CB (protein phosphatase 2 catalytic subunit beta)
-0.49 | PPP2CB (protein phosphatase 2 catalytic subunit beta)
-0.52 | FAM133A (family with sequence similarity 133 member A)
-0.74 | FAM133A (family with sequence similarity 133 member A)
0.16 | FAM133A (family with sequence similarity 133 member A)
0.62 | FAM133A (family with sequence similarity 133 member A)
-1.01 | RPS6KA1 (ribosomal protein S6 kinase A1)
0.25 | RPS6KA1 (ribosomal protein S6 kinase A1)
-0.05 | RPS6KA1 (ribosomal protein S6 kinase A1)
0.47 | RPS6KA1 (ribosomal protein S6 kinase A1)
0.69 | SPPL2C (signal peptide peptidase like 2C)
0.35 | SPPL2C (signal peptide peptidase like 2C)
0.86 | SPPL2C (signal peptide peptidase like 2C)
0.89 | SPPL2C (signal peptide peptidase like 2C)
